{
  "source": "PubChem BioAssay AID540276",
  "about": "(National Center for Advancing Translational Sciences (NCATS), 2011)",
  "note": "The whole screen tested about 300,000 compounds, of which about 5,400 (1.8%) were called active. This list was built around the results that the source calls inconclusive (neither active nor inactive); the mix of calls is not that of the screen. Calls come from the whole dose curve; tested in HEK293 cells. Potencies beside an inconclusive call are fits to weak or partial responses and may not hold up. % is set by controls: 0 for no effect and ±100 for the full control effect; potency is the fitted concentration of half-maximal effect.",
  "data": [
    {"assay": "qHTS for inhibitors of binding or entry into cells for Marburg Virus", "details": "Marburg virus pseudotyped entry inhibition, cell reporter; activity change, negative = inhibition: at 37.8 µM (top of the series) unless noted", "values": [
      {"smiles": "Cc1cccc(C(=O)NNS(=O)(=O)c2ccc(F)cc2)c1", "Potency": "inconclusive: 6.31 µM [activator, single point]"},
      {"smiles": "O=C(COC(=O)C1=COCCO1)Nc1ccccc1OC(F)F", "Potency": "inactive"},
      {"smiles": "Cc1cccc(NC(=O)COc2ccc(Br)cc2)n1", "Potency": "inactive"},
      {"smiles": "N=c1n(CCO)c2ccccc2n1CCOc1ccccc1", "Potency": "inconclusive: 35.5 µM [inhibitor, single point]"},
      {"smiles": "O=C(COc1ccccc1)NC(NC(=S)Nc1ccccc1O)C(Cl)(Cl)Cl", "note": "(stereo not given)", "Potency": "inconclusive: 11.2 µM [inhibitor, single point]"},
      {"smiles": "CC(C)(C)C(=O)Nc1ccc(C(=O)NNC(=O)c2ccccc2)cc1", "Potency": "inconclusive: 17.8 µM [activator, single point]"},
      {"smiles": "Cc1cc(N2CCOCC2)n2ncc(-c3ccccc3Cl)c2n1", "Potency": "inconclusive: 14.1 µM [inhibitor, single point]"},
      {"smiles": "Cc1ccc(SCC2CNc3nc4ccccc4c(=O)n32)c(C)c1", "note": "(stereo not given)", "Potency": "inactive"},
      {"smiles": "Cc1ccc(N(CC(=O)NC2CCCC2)C(=O)c2ccc(C)s2)cc1", "Potency": "inactive"},
      {"smiles": "CN1CCN(C(=O)c2ccc3nc(-c4ccccc4)c(-c4ccccc4)nc3c2)CC1", "Potency": "inconclusive: 11.2 µM [inhibitor, single point]"},
      {"smiles": "CCc1ccc(C(CNC(=O)c2ccc3c(=O)n(-c4ccccc4F)c(=S)[nH]c3c2)N(C)C)cc1", "note": "(stereo not given)", "Potency": "inconclusive: 12.6 µM [inhibitor, partial curve, poor fit]"},
      {"smiles": "Cc1cc(C)n(-c2nnc(C)n2/N=C/c2ccccc2OCc2ccccc2Cl)n1", "Potency": "inactive"},
      {"smiles": "CCOc1ccc(NC(=O)CSc2nc(-c3ccccc3)c3cc(OCC)ccc3n2)cc1", "Potency": "inactive"},
      {"smiles": "COc1ccc(NC(=O)c2ccc3nc(C)sc3c2)cc1", "Potency": "inconclusive: 35.5 µM [inhibitor, single point]"},
      {"smiles": "CCOCC(=O)Nc1cc(C(=O)NCCc2ccccc2)ccc1Cl", "Potency": "inconclusive: 11.2 µM [inhibitor, partial curve, poor fit]"},
      {"smiles": "O=C1NC(=O)N(Cc2ccco2)C(=O)/C1=C\\c1cccn1CCOc1ccc(Cl)cc1", "Potency": "inactive"},
      {"smiles": "CP(=O)(O)CCCN", "Potency": "inconclusive: 2.51 µM [inhibitor, partial curve, poor fit]"},
      {"smiles": "COc1cc2c(cc1OC)-c1cc(N3CCc4ccccc43)nc(=O)n1CC2", "Potency": "inconclusive: 4.47 µM [activator, single point]"},
      {"smiles": "CCOc1cccc(CC(=O)NCc2ccc3c(c2)CCN3C(=O)c2cccc(C)c2)c1OCC", "Potency": "inconclusive: 11.2 µM [inhibitor, partial curve, poor fit]"},
      {"smiles": "COc1cc(NS(=O)(=O)c2ccc(NC(=O)COc3ccc(Cl)cc3Cl)cc2)nc(OC)n1", "activity change, negative = inhibition": "inconclusive: 6.78% [activator] [at 46.1 µM]"},
      {"smiles": "CCN(C(=O)COC(=O)c1cccnc1Nc1ccccc1F)C1CCS(=O)(=O)C1", "note": "(stereo not given)", "Potency": "inconclusive: 15.8 µM [activator, partial curve, poor fit]"},
      {"smiles": "COC(=O)c1c(C(=O)OC)c2cc(C(=O)c3ccccc3)ccn2c1Cl", "Potency": "inconclusive: 14.1 µM [inhibitor, single point]"},
      {"smiles": "COCCNCCOCCOc1cccc(OC)c1", "Potency": "inactive"},
      {"smiles": "CCn1c(C)nc2cc(C(=O)NNC(=S)Nc3ccccc3)ccc21", "Potency": "inconclusive: 0.891 µM [activator, full curve, poor fit]"},
      {"smiles": "COc1ccc(C(=O)NC(Nc2ccc(C)cc2)C(Cl)(Cl)Cl)cc1", "note": "(stereo not given)", "Potency": "inconclusive: 20 µM [inhibitor, single point]"},
      {"smiles": "CCOc1ccc(C(=O)C[n+]2cccc3cc(C)ccc32)cc1", "Potency": "active: 7.08 µM"},
      {"smiles": "COC(=O)c1cc(NC(=O)c2cccc(F)c2)cc(C(=O)OC)c1", "Potency": "inactive"},
      {"smiles": "c1ccc(OCCCCn2cnc3ccccc32)cc1", "Potency": "inconclusive: 10 µM [inhibitor, partial curve, poor fit]"},
      {"smiles": "COc1ccc(CC(=O)OCC(=O)N2CCN(S(=O)(=O)c3ccc(C)cc3C)CC2)cc1", "Potency": "inconclusive: 7.94 µM [inhibitor, single point]"},
      {"smiles": "Cc1cc(NC(=O)CCC(=O)N(CC(=O)NC2CCCC2)c2cccc(C)c2C)no1", "Potency": "inconclusive: 31.6 µM [inhibitor, single point]"},
      {"smiles": "N#C/C(=N\\Nc1ccc(Cl)cc1)C(=O)c1ccccc1", "Potency": "active: 11.2 µM"},
      {"smiles": "Cc1ccc(C(=O)N2CCC(Cc3ccccc3)CC2)cc1[N+](=O)[O-]", "Potency": "inconclusive: 35.5 µM [inhibitor, partial curve, poor fit]"},
      {"smiles": "COCC(=O)N(CCc1ccc(OC)cc1)Cc1nc2ccccc2c(=O)[nH]1", "Potency": "inconclusive: 35.5 µM [activator, single point]"},
      {"smiles": "Cc1ccc(C)c(S(=O)(=O)N2CCN(C(=O)c3sccc3C)CC2)c1", "Potency": "inconclusive: 5.62 µM [activator, single point]"},
      {"smiles": "COC(=O)C1=C(C)N(Cc2ccccc2)C(=NCC(C)C)NC1c1ccc(Br)cc1", "note": "(stereo not given)", "Potency": "inactive"},
      {"smiles": "Cc1ccc(C)c(NC(=S)NC(=O)c2cncc(Br)c2)c1", "Potency": "inconclusive: 11.2 µM [activator, single point]"},
      {"smiles": "CCCc1cc(NCc2ccccn2)n2nc(C)c(-c3ccccc3)c2n1", "Potency": "inconclusive: 25.1 µM [inhibitor, partial curve, poor fit]"},
      {"smiles": "COc1ccc(C(C)=O)cc1COc1ccccc1[N+](=O)[O-]", "Potency": "inactive"},
      {"smiles": "Cc1ccc(C(=O)Nc2ccccc2N2CCCCC2)cc1", "Potency": "inactive"},
      {"smiles": "CC(C)(C)c1ccc(C(=O)N/C(=C/c2cccs2)C(=O)NCc2ccco2)cc1", "Potency": "inconclusive: 35.5 µM [inhibitor, single point]"},
      {"smiles": "CCOc1ccccc1CN1CCNC(=O)C1CC(=O)NCc1cc(C)n(C)n1", "note": "(stereo not given)", "Potency": "inconclusive: 5.62 µM [activator, single point]"},
      {"smiles": "Cc1nnc(SCC(=O)N(C)C2CCCCC2)s1", "Potency": "inconclusive: 35.5 µM [activator, single point]"},
      {"smiles": "CCOc1c(Cl)cc(C(=O)NCCN2CCCCC2)cc1Cl", "Potency": "inconclusive: 29.1 µM [inhibitor, single point]"},
      {"smiles": "O=C(N/N=C/c1ccc(Sc2nc3ccccc3[nH]2)o1)c1ccncc1", "Potency": "inactive"},
      {"smiles": "Cc1nn(C)c(C(=O)Nc2c(C)nn(Cc3c(F)c(F)c(F)c(F)c3F)c2C)c1Br", "Potency": "inconclusive: 3.16 µM [inhibitor, partial curve, poor fit]"}
    ]}
  ]
}
